# The other results are listed elsewhere or left out.
# Key:
# Assay in all cases: glycan array binding signal (z-score within array); higher = stronger binding
# Settings in all cases: glycan notation: IUPAC condensed, linker removed
# [1] = target: Gal(b1-4)GlcNAc(b1-3)Gal(b1-4)GlcNAc(b1-6)[Gal(b1-3)]GalNAc
# Summary of the method: (§1)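 The binding signal is a Z-score computed within each array and averaged over linkers. Arrays of the same protein sequence at different concentrations or buffers were also averaged together. Data originate from 3228 arrays in the Consortium for Functional Glycomics database, kept only where the protein sequence was available.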
# [2] = target: Gal(b1-4)GlcNAc(b1-3)Gal(b1-4)[Fuc(a1-3)]GlcNAc(b1-3)Gal(b1-4)[Fuc(a1-3)]GlcNAc
# Summary of the method: as §1
# [3] = target: Gal(b1-4)GlcNAc(b1-3)GalNAc
# Summary of the method: as §1
# [4] = target: Gal(b1-4)GlcNAc(b1-3)[Fuc(a1-3)GlcNAc(b1-6)]Gal(b1-4)Glc
# Summary of the method: as §1
# [5] = target: Gal(b1-4)GlcNAc(b1-3)[Gal(b1-4)GlcNAc(b1-6)]Gal(b1-4)GlcNAc
# Summary of the method: as §1
# [6] = target: Gal(b1-4)GlcNAc(b1-3)[GlcNAc(b1-6)]Gal(b1-4)GlcNAc
# Summary of the method: as §1
# [7] = target: Gal(b1-4)GlcNAc(b1-6)Gal(b1-4)GlcNAc
# Summary of the method: as §1
# [8] = target: Gal(b1-4)GlcNAc(b1-6)GalNAc
# Summary of the method: as §1
# [9] = target: Gal(b1-4)GlcNAc(b1-6)[Gal(b1-3)]GalNAc
# Summary of the method: as §1
# [10] = target: Gal(b1-4)GlcNAc(b1-6)[Gal(b1-4)GlcNAc(b1-3)]GalNAc
# Summary of the method: as §1
# [11] = target: Gal(b1-4)GlcNAc6P
# Summary of the method: as §1
# [12] = target: Gal(b1-6)Gal
# Summary of the method: as §1
# [13] = target: Gal3S(b1-3)GalNAc
# Summary of the method: as §1
# [14] = target: Gal3S(b1-3)GlcNAc
# Summary of the method: as §1
# [15] = target: Gal3S(b1-3)[Fuc(a1-4)]GlcNAc
# Summary of the method: as §1
# [16] = target: Gal3S(b1-4)Glc
# Summary of the method: as §1
# [17] = target: Gal3S(b1-4)Glc6S
# Summary of the method: as §1
# [18] = target: Gal3S(b1-4)GlcNAc
# Summary of the method: as §1
# [19] = target: Gal3S(b1-4)[Fuc(a1-3)]Glc6S
# Summary of the method: as §1
# [20] = target: Gal3S(b1-4)[Fuc(a1-3)]GlcNAc
# Summary of the method: as §1
# [21] = target: Gal3S(b1-4)[Fuc(a1-3)]GlcNAc6S
# Summary of the method: as §1
# [22] = target: Gal3S4S(b1-4)GlcNAc
# Summary of the method: as §1
# [23] = target: Gal3S6S(b1-4)GlcNAc
# Summary of the method: as §1
# [24] = target: Gal3S6S(b1-4)GlcNAc6S
# Summary of the method: as §1
# [25] = target: Gal4S(b1-4)GlcNAc
# Summary of the method: as §1
# [26] = target: Gal4S6S(b1-4)GlcNAc
# Summary of the method: as §1
# [27] = target: Gal6P(b1-4)GlcNAc
# Summary of the method: as §1
# [28] = target: Gal6S(b1-3)GlcNAc
# Summary of the method: as §1
# [29] = target: Gal6S(b1-3)GlcNAc6S
# Summary of the method: as §1
# [30] = target: Gal6S(b1-4)Glc
# Summary of the method: as §1
# [31] = target: Gal6S(b1-4)Glc6S
# Summary of the method: as §1
# [32] = target: Gal6S(b1-4)GlcNAc
# Summary of the method: as §1
# [33] = target: Gal6S(b1-4)GlcNAc6S
# Summary of the method: as §1
# [34] = target: GalNAc(a1-3)Gal
# Summary of the method: as §1
# [35] = target: GalNAc(a1-3)GalNAc
# Summary of the method: as §1
# [36] = target: GalNAc(a1-3)GalNAc(b1-3)Gal(a1-4)Gal(b1-4)Glc
# Summary of the method: as §1
# [37] = target: GalNAc(a1-3)GalNAc(b1-3)Gal(a1-4)Gal(b1-4)GlcNAc
# Summary of the method: as §1
# [38] = target: GalNAc(b1-3)Gal
# Summary of the method: as §1
# [39] = target: GalNAc(b1-3)Gal(a1-4)Gal(b1-4)GlcNAc
# Summary of the method: as §1
# [40] = target: GalNAc(b1-3)Gal(a1-4)Gal(b1-4)GlcNAc(b1-3)Gal(b1-4)Glc
# Summary of the method: as §1
# [41] = target: GalNAc(b1-3)Gal(a1-6)Gal(b1-4)Glc
# Summary of the method: as §1
# [42] = target: GalNAc(b1-3)GalNAc
# Summary of the method: as §1
# [43] = target: GalNAc(b1-3)GlcNAc
# Summary of the method: as §1
# [44] = target: GalNAc(b1-4)Gal(b1-4)Glc
# Summary of the method: as §1
# [45] = target: GalNAc(b1-4)GlcNAc
# Summary of the method: as §1
# [46] = target: GalNAc(b1-4)GlcNAc(b1-2)Man
# Summary of the method: as §1
# [47] = target: GalNAc(b1-4)GlcNAc(b1-2)Man(a1-3)[GalNAc(b1-4)GlcNAc(b1-2)Man(a1-6)]Man(b1-4)GlcNAc(b1-4)GlcNAc
# Summary of the method: as §1
# [48] = target: GalNAc(b1-4)GlcNAc(b1-3)GalNAc(b1-4)GlcNAc
# Summary of the method: as §1
# [49] = target: GalNAc(b1-4)GlcNAc6S
# Summary of the method: as §1
# [50] = target: GalNAc(b1-6)GalNAc
# Summary of the method: as §1
# [51] = target: GalNAc3S(b1-4)GlcNAc
# Summary of the method: as §1
# [52] = target: GalNAc3S(b1-4)GlcNAc3S
# Summary of the method: as §1
# [53] = target: GalNAc3S(b1-4)[Fuc(a1-3)]GlcNAc
# Summary of the method: as §1
# [54] = target: GalNAc4S6S(b1-4)GlcNAc
# Summary of the method: as §1
# [55] = target: GalNAc6S(b1-4)GlcNAc
# Summary of the method: as §1
# [56] = target: Glc(a1-4)Glc
# Summary of the method: as §1
# [57] = target: Glc(a1-4)Glc(a1-4)Glc(a1-4)Glc
# Summary of the method: as §1
# [58] = target: Glc(a1-6)Glc(a1-6)Glc
# Summary of the method: as §1
# [59] = target: Glc(a1-6)Glc(a1-6)Glc(a1-6)Glc
# Summary of the method: as §1
# [60] = target: Glc(b1-4)Glc
# Summary of the method: as §1
# [61] = target: Glc(b1-6)Glc
# Summary of the method: as §1
# [62] = target: GlcA(b1-3)Gal
# Summary of the method: as §1
# [63] = target: GlcA(b1-3)GlcNAc
# Summary of the method: as §1
# [64] = target: GlcA(b1-6)Gal
# Summary of the method: as §1
# [65] = target: GlcA3S(b1-3)Gal(b1-4)GlcNAc(b1-2)Man
# Summary of the method: as §1
# [66] = target: GlcA3S(b1-3)Gal(b1-4)GlcNAc(b1-3)Gal(b1-4)Glc
# Summary of the method: as §1
# [67] = target: GlcNAc(a1-3)Gal(b1-4)GlcNAc
# Summary of the method: as §1
# [68] = target: GlcNAc(a1-4)Gal(b1-3)GlcNAc
# Summary of the method: as §1
# [69] = target: GlcNAc(a1-4)Gal(b1-4)GalNAc
# Summary of the method: as §1
# [70] = target: GlcNAc(a1-4)Gal(b1-4)GlcNAc
# Summary of the method: as §1
# [71] = target: GlcNAc(a1-4)Gal(b1-4)GlcNAc(b1-3)Gal(b1-4)Glc
# Summary of the method: as §1
# [72] = target: GlcNAc(a1-4)Gal(b1-4)GlcNAc(b1-3)Gal(b1-4)GlcNAc
# Summary of the method: as §1
# [73] = target: GlcNAc(a1-4)Gal(b1-4)GlcNAc(b1-3)Gal(b1-4)GlcNAc(b1-3)Gal(b1-4)GlcNAc
# Summary of the method: as §1
# [74] = target: GlcNAc(a1-4)Gal(b1-4)GlcNAc(b1-3)Gal(b1-4)[Fuc(a1-3)]GlcNAc(b1-3)Gal(b1-4)[Fuc(a1-3)]GlcNAc
# Summary of the method: as §1
# [75] = target: GlcNAc(a1-6)Gal(b1-4)GlcNAc
# Summary of the method: as §1
binder,measurement,setting,value
Epa3to2 (Candida glabrata) (protein) MGSSHHHHHHSSGLVPRGSHMKRELSSQNPFGYPIGCSPQDVAIIPGLTMELYSYPIVSGTPPNCYDASYVDPEYPRTGYLKRKMVGKSTGVTGNLNYKYSVEKACMVKYGNLPAGYNYNEPLTVSNFTMILYGYFKAQTTGLHTFFVNADDLLYINFGAGNAFDCCKREDSKTKLGEYVAYDIWHVDSSKNKVSLFLEKDLYYPIRMFFNNRDNNSSLDLSFSVNGATDQISDFSGYLYSVPDQPDTCPAHIGYDTTCR,glycan array binding signal (z-score),[1],0.306
same,glycan array binding signal (z-score),[2],-0.448
same,glycan array binding signal (z-score),[3],-1.11
same,glycan array binding signal (z-score),[4],1.65
same,glycan array binding signal (z-score),[5],1.17
same,glycan array binding signal (z-score),[6],-1.14
same,glycan array binding signal (z-score),[7],-0.268
same,glycan array binding signal (z-score),[8],0.214
same,glycan array binding signal (z-score),[9],0.588
same,glycan array binding signal (z-score),[10],0.129
same,glycan array binding signal (z-score),[11],-0.776
same,glycan array binding signal (z-score),[12],0.043
same,glycan array binding signal (z-score),[13],-0.582
same,glycan array binding signal (z-score),[14],0.408
same,glycan array binding signal (z-score),[15],0.077
same,glycan array binding signal (z-score),[16],0.557
same,glycan array binding signal (z-score),[17],0.185
same,glycan array binding signal (z-score),[18],-0.899
same,glycan array binding signal (z-score),[19],0.958
same,glycan array binding signal (z-score),[20],0.614
same,glycan array binding signal (z-score),[21],1.12
same,glycan array binding signal (z-score),[22],-0.354
same,glycan array binding signal (z-score),[23],2.42
same,glycan array binding signal (z-score),[24],0.129
same,glycan array binding signal (z-score),[25],-0.281
same,glycan array binding signal (z-score),[26],-0.411
same,glycan array binding signal (z-score),[27],-0.6
same,glycan array binding signal (z-score),[28],0.814
same,glycan array binding signal (z-score),[29],3.65
same,glycan array binding signal (z-score),[30],0.068
same,glycan array binding signal (z-score),[31],-0.051
same,glycan array binding signal (z-score),[32],-0.325
same,glycan array binding signal (z-score),[33],2.45
same,glycan array binding signal (z-score),[34],1.49
same,glycan array binding signal (z-score),[35],-0.396
same,glycan array binding signal (z-score),[36],-0.532
same,glycan array binding signal (z-score),[37],0.729
same,glycan array binding signal (z-score),[38],0.055
same,glycan array binding signal (z-score),[39],0.528
same,glycan array binding signal (z-score),[40],-0.185
same,glycan array binding signal (z-score),[41],1.12
same,glycan array binding signal (z-score),[42],-1
same,glycan array binding signal (z-score),[43],-0.249
same,glycan array binding signal (z-score),[44],1.02
same,glycan array binding signal (z-score),[45],0.112
same,glycan array binding signal (z-score),[46],-0.81
same,glycan array binding signal (z-score),[47],0.675
same,glycan array binding signal (z-score),[48],0.301
same,glycan array binding signal (z-score),[49],-0.544
same,glycan array binding signal (z-score),[50],0.101
same,glycan array binding signal (z-score),[51],-0.257
same,glycan array binding signal (z-score),[52],-0.229
same,glycan array binding signal (z-score),[53],-1.03
same,glycan array binding signal (z-score),[54],-0.484
same,glycan array binding signal (z-score),[55],-0.991
same,glycan array binding signal (z-score),[56],-0.041
same,glycan array binding signal (z-score),[57],1.2
same,glycan array binding signal (z-score),[58],-0.102
same,glycan array binding signal (z-score),[59],-0.53
same,glycan array binding signal (z-score),[60],-0.994
same,glycan array binding signal (z-score),[61],-0.081
same,glycan array binding signal (z-score),[62],-1.16
same,glycan array binding signal (z-score),[63],-0.485
same,glycan array binding signal (z-score),[64],-1.12
same,glycan array binding signal (z-score),[65],0.15
same,glycan array binding signal (z-score),[66],0.034
same,glycan array binding signal (z-score),[67],-1.07
same,glycan array binding signal (z-score),[68],-1.92
same,glycan array binding signal (z-score),[69],-0.645
same,glycan array binding signal (z-score),[70],-0.555
same,glycan array binding signal (z-score),[71],0.002
same,glycan array binding signal (z-score),[72],-0.297
same,glycan array binding signal (z-score),[73],-0.047
same,glycan array binding signal (z-score),[74],2.65
same,glycan array binding signal (z-score),[75],1.07

# Quoted at random: five records from the list, in no set order.
binder,measurement,setting,value
Epa3to2 (Candida glabrata) (protein) MGSSHHHHHHSSGLVPRGSHMKRELSSQNPFGYPIGCSPQDVAIIPGLTMELYSYPIVSGTPPNCYDASYVDPEYPRTGYLKRKMVGKSTGVTGNLNYKYSVEKACMVKYGNLPAGYNYNEPLTVSNFTMILYGYFKAQTTGLHTFFVNADDLLYINFGAGNAFDCCKREDSKTKLGEYVAYDIWHVDSSKNKVSLFLEKDLYYPIRMFFNNRDNNSSLDLSFSVNGATDQISDFSGYLYSVPDQPDTCPAHIGYDTTCR,glycan array binding signal (z-score),[70],-0.555
same,glycan array binding signal (z-score),[33],2.45
same,glycan array binding signal (z-score),[42],-1
same,glycan array binding signal (z-score),[14],0.408
same,glycan array binding signal (z-score),[52],-0.229

# — the supplement of paper PMC8728848
